Test results reported in PMC7485985.
Results are given in words; binding and its absence hold for the method and conditions named. For part of these data: Binding seen in cells or lysates may run through a third protein. Some results given as binding are weak or reduced against the parent protein; the word gives no strength. Sequences can lack the tags named with a protein.

Sequences of proteins named here, by UniProt entry; tags and fusion partners are left off.
UniProt Q336P5: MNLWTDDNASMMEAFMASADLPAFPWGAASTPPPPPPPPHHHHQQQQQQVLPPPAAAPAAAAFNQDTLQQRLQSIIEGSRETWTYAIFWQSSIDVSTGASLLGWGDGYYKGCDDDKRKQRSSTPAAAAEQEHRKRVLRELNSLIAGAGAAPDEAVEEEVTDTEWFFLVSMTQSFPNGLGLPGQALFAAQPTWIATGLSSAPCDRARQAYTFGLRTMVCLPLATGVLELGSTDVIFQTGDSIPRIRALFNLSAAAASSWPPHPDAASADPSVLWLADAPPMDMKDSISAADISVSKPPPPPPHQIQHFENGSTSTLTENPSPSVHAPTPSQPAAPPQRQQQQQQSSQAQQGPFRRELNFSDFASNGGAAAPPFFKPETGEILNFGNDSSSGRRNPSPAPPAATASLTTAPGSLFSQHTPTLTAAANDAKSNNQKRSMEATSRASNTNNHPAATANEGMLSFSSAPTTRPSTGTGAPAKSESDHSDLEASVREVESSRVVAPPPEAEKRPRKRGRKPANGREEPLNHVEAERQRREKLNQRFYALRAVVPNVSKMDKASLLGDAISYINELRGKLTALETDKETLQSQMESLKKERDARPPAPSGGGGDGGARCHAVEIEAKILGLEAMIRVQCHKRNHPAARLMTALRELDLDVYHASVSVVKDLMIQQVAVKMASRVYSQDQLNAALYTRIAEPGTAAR

How the values were obtained:
OsMYC2-NLuc (rice) = OsMYC2-NLuc (rice) (UniProt Q336P5); test: split reporter; Luciferase Complementation Imaging (LCI); OsMYC2-NLuc and CLuc-OsGSK2 co-infiltrated into N. benthamiana leaves; 1 mM luciferin
OsMYC2-GFP (rice) = OsMYC2-GFP (rice) (UniProt Q336P5); test: co-IP; OsMYC2-GFP and OsGSK2-Flag transiently expressed in N. benthamiana; extract in NB1 buffer; captured with GFP magnetic beads at 4°C; blots with anti-GFP and anti-Flag
MBP-OsMYC2 (rice) = MBP-OsMYC2 (rice) (UniProt Q336P5); test: SPR; Biacore T200; MBP-OsMYC2 and MBP immobilised on CM5 chip by amino groups; GST-OsGSK2 (9.375 to 130 nmol/mL) and GST (12.5 to 200 nmol/mL) as analytes; both purified

B1: CLuc-OsGSK2 (enzyme, UniProt Q60EZ2 1-402)
chain: MDQPAPAPEPMLLDAQPPAAVACDKKQQEGEAPYAEGNDAVTGHIISTTIGGKNGEPKRTISYMAERVVGTGSFGIVFQAKCLETGETVAIKKVLQDRRYKNRELQLMRAMDHPNVISLKHCFFSTTSRDELFLNLVMEYVPETLYRVLKHYSNANHRMPLIYVKLYMYQLFRGLAYIHTVPGVCHRDVKPQNVLVDPLTHQVKLCDFGSAKTLVPGEPNISYICSRYYRAPELIFGATEYTTSIDIWSAGCVLAELLLGQPLFPGESAVDQLVEIIKVLGTPTREEIRCMNPNYTEFRFPQIKAHPWHKVFHKRMPPEAIDLASRLLQYSPSLRCTALDACAHPFFDELREPNARLPNGRPFPPLFNFKHELANSSQELISRLIPEHVRRQATHNFFNTGS
OsMYC2-NLuc (rice)
  binding: binds

B2: OsGSK2-Flag (enzyme, UniProt Q60EZ2 1-402)
chain: MDQPAPAPEPMLLDAQPPAAVACDKKQQEGEAPYAEGNDAVTGHIISTTIGGKNGEPKRTISYMAERVVGTGSFGIVFQAKCLETGETVAIKKVLQDRRYKNRELQLMRAMDHPNVISLKHCFFSTTSRDELFLNLVMEYVPETLYRVLKHYSNANHRMPLIYVKLYMYQLFRGLAYIHTVPGVCHRDVKPQNVLVDPLTHQVKLCDFGSAKTLVPGEPNISYICSRYYRAPELIFGATEYTTSIDIWSAGCVLAELLLGQPLFPGESAVDQLVEIIKVLGTPTREEIRCMNPNYTEFRFPQIKAHPWHKVFHKRMPPEAIDLASRLLQYSPSLRCTALDACAHPFFDELREPNARLPNGRPFPPLFNFKHELANSSQELISRLIPEHVRRQATHNFFNTGS
OsMYC2-GFP (rice)
  binding: binds

B3: GST-OsGSK2 (enzyme, UniProt Q60EZ2 1-402)
chain: MDQPAPAPEPMLLDAQPPAAVACDKKQQEGEAPYAEGNDAVTGHIISTTIGGKNGEPKRTISYMAERVVGTGSFGIVFQAKCLETGETVAIKKVLQDRRYKNRELQLMRAMDHPNVISLKHCFFSTTSRDELFLNLVMEYVPETLYRVLKHYSNANHRMPLIYVKLYMYQLFRGLAYIHTVPGVCHRDVKPQNVLVDPLTHQVKLCDFGSAKTLVPGEPNISYICSRYYRAPELIFGATEYTTSIDIWSAGCVLAELLLGQPLFPGESAVDQLVEIIKVLGTPTREEIRCMNPNYTEFRFPQIKAHPWHKVFHKRMPPEAIDLASRLLQYSPSLRCTALDACAHPFFDELREPNARLPNGRPFPPLFNFKHELANSSQELISRLIPEHVRRQATHNFFNTGS
MBP-OsMYC2 (rice)
  binding: binds
